No constants are given. Whether binding was seen depends on the method and setting. In cells and extracts the contact can be indirect. A yes stands for co-enrichment or nearness to the bait. Other partners may have been found.
molecular target: endogenous Act1 (HeLa cells) (human (endogenous in HeLa)) (UniProt O43734); assay: affinity purification with mass spectrometry; endogenous Act1 immunoprecipitated from lysates of HeLa cells treated with IL-17; co-precipitated proteins found by LC-MS/MS

Protein sequences, listed by entry. Tags and fused reporters are not part of them. Residues count along the entry.
UniProt O43734: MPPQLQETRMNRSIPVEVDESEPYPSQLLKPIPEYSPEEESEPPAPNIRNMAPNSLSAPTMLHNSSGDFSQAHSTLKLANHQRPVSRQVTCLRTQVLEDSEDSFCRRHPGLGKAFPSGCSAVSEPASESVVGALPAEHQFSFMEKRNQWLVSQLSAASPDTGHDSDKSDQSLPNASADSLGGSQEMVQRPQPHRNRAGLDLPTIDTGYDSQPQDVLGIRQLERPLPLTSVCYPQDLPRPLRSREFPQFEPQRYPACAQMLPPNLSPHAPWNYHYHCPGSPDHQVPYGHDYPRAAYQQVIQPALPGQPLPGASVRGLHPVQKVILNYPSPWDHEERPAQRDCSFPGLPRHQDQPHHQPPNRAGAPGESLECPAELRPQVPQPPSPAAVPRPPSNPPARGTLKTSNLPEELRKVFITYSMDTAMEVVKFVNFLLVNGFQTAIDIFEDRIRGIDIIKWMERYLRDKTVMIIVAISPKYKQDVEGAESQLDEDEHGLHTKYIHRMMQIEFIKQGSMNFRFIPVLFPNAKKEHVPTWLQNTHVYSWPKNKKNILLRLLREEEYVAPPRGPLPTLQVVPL
UniProt Q04721, residues 26-2471: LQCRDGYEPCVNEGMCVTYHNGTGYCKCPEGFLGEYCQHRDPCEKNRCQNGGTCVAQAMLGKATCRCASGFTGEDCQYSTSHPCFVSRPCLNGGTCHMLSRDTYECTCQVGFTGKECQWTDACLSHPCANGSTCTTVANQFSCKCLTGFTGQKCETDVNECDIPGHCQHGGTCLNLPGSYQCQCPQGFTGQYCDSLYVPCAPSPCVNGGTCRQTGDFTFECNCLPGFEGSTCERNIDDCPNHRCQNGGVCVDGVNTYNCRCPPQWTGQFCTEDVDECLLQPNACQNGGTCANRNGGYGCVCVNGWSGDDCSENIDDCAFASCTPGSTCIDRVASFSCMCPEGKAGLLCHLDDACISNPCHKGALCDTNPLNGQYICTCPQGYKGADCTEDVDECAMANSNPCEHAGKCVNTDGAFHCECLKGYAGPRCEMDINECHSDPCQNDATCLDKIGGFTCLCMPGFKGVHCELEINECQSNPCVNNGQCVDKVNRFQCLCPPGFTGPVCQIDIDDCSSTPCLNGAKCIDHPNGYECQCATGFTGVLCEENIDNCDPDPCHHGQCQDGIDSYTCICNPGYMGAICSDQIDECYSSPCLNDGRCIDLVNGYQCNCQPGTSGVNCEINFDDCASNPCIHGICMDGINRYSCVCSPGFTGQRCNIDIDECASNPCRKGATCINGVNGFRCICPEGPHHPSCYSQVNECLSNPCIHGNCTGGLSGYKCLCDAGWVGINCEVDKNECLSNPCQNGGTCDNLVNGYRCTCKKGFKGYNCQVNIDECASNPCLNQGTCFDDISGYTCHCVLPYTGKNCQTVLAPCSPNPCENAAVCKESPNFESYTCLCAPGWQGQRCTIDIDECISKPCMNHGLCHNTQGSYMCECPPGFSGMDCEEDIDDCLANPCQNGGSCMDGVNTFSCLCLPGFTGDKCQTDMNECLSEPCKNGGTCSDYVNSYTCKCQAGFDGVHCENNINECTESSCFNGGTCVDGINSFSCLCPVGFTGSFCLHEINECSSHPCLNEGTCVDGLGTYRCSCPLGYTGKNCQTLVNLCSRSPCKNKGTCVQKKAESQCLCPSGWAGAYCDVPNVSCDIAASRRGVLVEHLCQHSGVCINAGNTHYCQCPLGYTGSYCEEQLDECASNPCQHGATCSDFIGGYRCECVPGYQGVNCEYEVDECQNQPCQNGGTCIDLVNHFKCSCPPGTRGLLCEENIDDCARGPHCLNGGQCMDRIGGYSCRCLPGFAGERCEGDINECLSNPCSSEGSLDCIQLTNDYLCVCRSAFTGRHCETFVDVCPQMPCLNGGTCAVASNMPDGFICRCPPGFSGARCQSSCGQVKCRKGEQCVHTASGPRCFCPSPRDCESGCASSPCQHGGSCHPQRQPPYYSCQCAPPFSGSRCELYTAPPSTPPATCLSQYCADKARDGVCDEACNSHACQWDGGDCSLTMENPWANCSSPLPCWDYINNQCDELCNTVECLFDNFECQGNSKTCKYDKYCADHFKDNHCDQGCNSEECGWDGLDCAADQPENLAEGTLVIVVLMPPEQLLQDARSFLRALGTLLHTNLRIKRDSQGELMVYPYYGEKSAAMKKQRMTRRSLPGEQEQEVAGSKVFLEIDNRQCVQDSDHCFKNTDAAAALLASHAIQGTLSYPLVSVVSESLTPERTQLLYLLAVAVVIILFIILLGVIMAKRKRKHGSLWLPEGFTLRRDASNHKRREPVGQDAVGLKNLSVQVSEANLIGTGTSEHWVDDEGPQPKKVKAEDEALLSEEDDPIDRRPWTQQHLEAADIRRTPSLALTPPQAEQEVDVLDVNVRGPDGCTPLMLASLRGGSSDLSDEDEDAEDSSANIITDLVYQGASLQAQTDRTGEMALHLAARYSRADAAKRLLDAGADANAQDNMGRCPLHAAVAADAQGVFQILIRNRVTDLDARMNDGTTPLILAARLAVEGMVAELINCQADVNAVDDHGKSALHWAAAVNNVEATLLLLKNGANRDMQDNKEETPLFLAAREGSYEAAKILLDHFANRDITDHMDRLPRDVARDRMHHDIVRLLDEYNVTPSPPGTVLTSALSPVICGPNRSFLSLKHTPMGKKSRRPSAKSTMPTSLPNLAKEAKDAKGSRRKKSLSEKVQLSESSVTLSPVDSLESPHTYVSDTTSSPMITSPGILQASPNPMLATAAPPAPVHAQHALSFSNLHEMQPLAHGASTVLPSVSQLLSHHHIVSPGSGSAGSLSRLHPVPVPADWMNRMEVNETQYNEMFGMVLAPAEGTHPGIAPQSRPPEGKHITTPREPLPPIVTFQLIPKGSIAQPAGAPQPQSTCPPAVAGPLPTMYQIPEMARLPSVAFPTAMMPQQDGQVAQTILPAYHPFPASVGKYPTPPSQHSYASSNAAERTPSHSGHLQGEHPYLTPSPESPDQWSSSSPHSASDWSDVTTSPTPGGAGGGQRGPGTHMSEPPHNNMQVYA
UniProt P46531, residues 19-2555: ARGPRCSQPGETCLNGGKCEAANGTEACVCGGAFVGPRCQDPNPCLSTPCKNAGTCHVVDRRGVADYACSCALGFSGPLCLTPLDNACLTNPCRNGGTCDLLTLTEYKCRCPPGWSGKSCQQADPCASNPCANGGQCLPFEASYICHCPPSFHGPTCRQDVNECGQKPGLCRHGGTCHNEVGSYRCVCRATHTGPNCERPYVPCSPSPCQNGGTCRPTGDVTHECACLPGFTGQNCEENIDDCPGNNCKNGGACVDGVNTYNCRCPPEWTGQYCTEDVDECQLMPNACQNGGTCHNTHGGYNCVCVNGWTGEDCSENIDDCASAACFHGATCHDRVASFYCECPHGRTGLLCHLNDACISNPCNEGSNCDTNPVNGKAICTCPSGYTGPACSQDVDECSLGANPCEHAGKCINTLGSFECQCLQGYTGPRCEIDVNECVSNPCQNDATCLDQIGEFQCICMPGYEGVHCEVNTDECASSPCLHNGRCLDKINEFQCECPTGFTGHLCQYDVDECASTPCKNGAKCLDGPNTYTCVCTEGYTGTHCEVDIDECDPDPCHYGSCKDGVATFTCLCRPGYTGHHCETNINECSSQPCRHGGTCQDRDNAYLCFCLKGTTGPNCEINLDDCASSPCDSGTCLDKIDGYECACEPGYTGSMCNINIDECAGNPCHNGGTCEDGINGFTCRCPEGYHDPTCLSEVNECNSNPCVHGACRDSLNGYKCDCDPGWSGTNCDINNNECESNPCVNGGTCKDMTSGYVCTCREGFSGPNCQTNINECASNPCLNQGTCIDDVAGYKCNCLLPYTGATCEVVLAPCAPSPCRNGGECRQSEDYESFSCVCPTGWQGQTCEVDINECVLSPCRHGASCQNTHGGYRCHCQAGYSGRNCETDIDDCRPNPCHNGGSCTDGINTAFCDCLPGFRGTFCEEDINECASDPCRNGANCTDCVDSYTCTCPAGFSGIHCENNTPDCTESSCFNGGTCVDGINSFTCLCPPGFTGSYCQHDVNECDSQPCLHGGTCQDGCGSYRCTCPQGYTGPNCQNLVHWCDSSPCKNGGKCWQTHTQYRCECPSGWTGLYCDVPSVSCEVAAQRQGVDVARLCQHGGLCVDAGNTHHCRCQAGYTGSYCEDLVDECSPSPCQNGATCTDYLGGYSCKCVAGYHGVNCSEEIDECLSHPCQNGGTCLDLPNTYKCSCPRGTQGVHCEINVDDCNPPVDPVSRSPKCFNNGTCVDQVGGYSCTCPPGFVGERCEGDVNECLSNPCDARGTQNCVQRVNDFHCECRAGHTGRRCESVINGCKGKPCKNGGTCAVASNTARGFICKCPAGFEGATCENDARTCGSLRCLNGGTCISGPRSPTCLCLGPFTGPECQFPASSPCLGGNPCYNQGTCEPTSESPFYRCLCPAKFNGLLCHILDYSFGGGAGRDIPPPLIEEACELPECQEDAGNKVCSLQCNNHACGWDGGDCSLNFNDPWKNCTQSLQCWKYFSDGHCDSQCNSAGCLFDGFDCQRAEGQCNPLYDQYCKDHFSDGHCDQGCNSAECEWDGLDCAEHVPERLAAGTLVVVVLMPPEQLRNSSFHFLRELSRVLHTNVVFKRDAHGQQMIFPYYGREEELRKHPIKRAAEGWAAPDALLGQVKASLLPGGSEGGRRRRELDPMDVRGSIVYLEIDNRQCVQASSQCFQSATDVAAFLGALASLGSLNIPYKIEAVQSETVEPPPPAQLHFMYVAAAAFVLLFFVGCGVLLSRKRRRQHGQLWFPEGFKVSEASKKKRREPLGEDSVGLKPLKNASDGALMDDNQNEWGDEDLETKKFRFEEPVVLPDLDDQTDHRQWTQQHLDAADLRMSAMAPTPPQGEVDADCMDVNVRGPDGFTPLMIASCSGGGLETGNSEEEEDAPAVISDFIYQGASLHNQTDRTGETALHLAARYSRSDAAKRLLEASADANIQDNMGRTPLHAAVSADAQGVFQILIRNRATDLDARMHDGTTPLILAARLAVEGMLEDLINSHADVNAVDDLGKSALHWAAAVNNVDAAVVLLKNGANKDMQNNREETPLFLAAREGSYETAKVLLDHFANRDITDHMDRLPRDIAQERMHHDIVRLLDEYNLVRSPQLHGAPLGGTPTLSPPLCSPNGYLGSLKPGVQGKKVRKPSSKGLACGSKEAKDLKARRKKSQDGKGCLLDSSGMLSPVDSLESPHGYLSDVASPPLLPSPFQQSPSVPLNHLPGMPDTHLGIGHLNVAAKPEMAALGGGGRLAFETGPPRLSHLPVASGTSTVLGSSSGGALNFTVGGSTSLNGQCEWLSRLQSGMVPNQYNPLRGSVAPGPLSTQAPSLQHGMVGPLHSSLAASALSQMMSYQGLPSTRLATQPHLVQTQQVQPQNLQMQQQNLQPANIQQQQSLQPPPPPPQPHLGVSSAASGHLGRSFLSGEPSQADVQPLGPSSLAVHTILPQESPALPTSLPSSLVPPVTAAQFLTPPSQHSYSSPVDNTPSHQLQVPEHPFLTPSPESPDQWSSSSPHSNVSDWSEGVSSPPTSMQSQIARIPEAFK

binding | Substance
binds | NOTCH2 (endogenous, HeLa cells) (from UniProt Q04721 26-2471) (receptor)
binds | NOTCH1 (endogenous, HeLa cells) (from UniProt P46531 19-2555) (receptor)
binds | NOTCH3 (endogenous, HeLa cells) (from UniProt Q9UM47 40-2321) (receptor)

Source: paper PMC5460031
